Source: PubChem BioAssay AID686937 (Drosophila RNAi Screening Center, 2013)

Test: 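Knock-downs that reduce output of a secreted reporter enzyme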 (primary screen)
Cell system: Drosophila S2 cells expressing secreted horseradish peroxidase
Reagent: long dsRNA against Drosophila genes
Timing: about 5.5 days (5 days dsRNA, then 12 h reporter induction)
Challenge: reporter expression induced after 5 days of dsRNA, read 12 h later; inducer not stated
Read-out: 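Chemiluminescent measurement of peroxidase in the medium 12 h after reporter induction, following 5 days of dsRNA, given as a z-score per plate; higher means more secretion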
Direction: z-score: higher = more reporter secreted into medium
The deposit covers about 23,000 reagents; below is a random part of those with a known target gene and a result. 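Reduced-secretion tags in replicate 1 do not always agree with the z-scores; no criterion for assigning the tags was given.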 Further read-outs or replicates are left out here. No sequences are given here. Not given: the amount of reagent.

Which result is listed for ND-B18 (NADH dehydrogenase (ubiquinone) B18 subunit) [DRSC19947]?
z-score, replicate 1: -0.09

What is on record for CG14881 [DRSC15005]?
z-score, replicate 1: 0.48

Which result is listed for CG31974 [DRSC00522]?
z-score, replicate 1: 0.23

For GstD6 (Glutathione S transferase D6) [DRSC16687], what was measured?
z-score, replicate 1: 0.44

For CG42570 [DRSC09391], how do the results read?
z-score, replicate 1: 0.53

For Ctf4 (Chromosome transmission fidelity 4) [DRSC06380], what does the deposit list?
z-score, replicate 1: 0.4

With CG8646 [DRSC07230], what was measured?
z-score, replicate 1: 0.24

How did the screen score Obp56f (Odorant-binding protein 56f) [DRSC22270]?
z-score, replicate 1: -0.2

Which result is listed for CG13403 [DRSC19535]?
z-score, replicate 1: 0.22

What is on record for CG15773 [DRSC18079]?
z-score, replicate 1: 0.35

With Syx5 (Syntaxin 5) [DRSC03432], what was measured?
z-score, replicate 1: -6.09

What did the screen give for Mst36Fa (Male-specific transcript 36Fa) [DRSC21564]?
z-score, replicate 1: -0.05

What is on record for ncd (non-claret disjunctional) [DRSC17012]?
z-score, replicate 1: 0.14

For CG34169 [DRSC01579], how do the results read?
z-score, replicate 1: 0.05

What did the screen give for emc (extra macrochaetae) [DRSC08715]?
z-score, replicate 1: -0.96

Which result is listed for SCaMC [DRSC10293]?
z-score, replicate 1: -0.18

For SCaMC [DRSC10415], what does the deposit list?
z-score, replicate 1: 0.47
